Data as given in PubChem BioAssay AID1159584 (Peter MacCallum Cancer Centre, 2016)
Test: 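Genes whose loss is lethal only together with E-cadherin loss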 (primary screen). System: human MCF10A breast epithelial cells, parental and CDH1-null. Reagent: siRNA against human genes. Measured: 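ATP luminescence (CellTiter-Glo) viability per line relative to mean mock wells over all plates, and the ratio of CDH1-null to parental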. Direction: CDH1-null / parental viability ratio: higher = CDH1-null cells survive relatively better than parental; CDH1-null viability vs mock: higher = more viable CDH1-null cells. Units: CDH1-null viability vs mock in fraction of mock.
Shown is a random part of about 18,000 deposited reagents. Not all columns of the deposit are shown. The record does not give: the amount of reagent, the time to read-out.

BIVM [SID134320568] | CDH1-null / parental viability ratio: 1.11; CDH1-null viability vs mock: 0.81
TRIM49B [SID152150058] | CDH1-null / parental viability ratio: 0.97; CDH1-null viability vs mock: 0.6
COL15A1 [SID152152317] | CDH1-null / parental viability ratio: 1.07; CDH1-null viability vs mock: 0.96
PRR7 [SID152151276] | CDH1-null / parental viability ratio: 1.22; CDH1-null viability vs mock: 0.78
NEK8 [SID56478901] | CDH1-null / parental viability ratio: 1; CDH1-null viability vs mock: 0.72
GABRE [SID135621155] | CDH1-null / parental viability ratio: 1.53; CDH1-null viability vs mock: 0.69
SLC51B [SID134322404] | CDH1-null / parental viability ratio: 1.14; CDH1-null viability vs mock: 0.64
OSTM1 [SID152147964] | CDH1-null / parental viability ratio: 1.48; CDH1-null viability vs mock: 0.92
AFDN-DT [SID135625542] | CDH1-null / parental viability ratio: 0.98; CDH1-null viability vs mock: 0.81
USP44 [SID152150964] | CDH1-null / parental viability ratio: 1.17; CDH1-null viability vs mock: 0.94
AGPS [SID152156275] | CDH1-null / parental viability ratio: 0.76; CDH1-null viability vs mock: 0.72
MOV10 [SID152154086] | CDH1-null / parental viability ratio: 1.12; CDH1-null viability vs mock: 0.94
PPP3R1 [SID152154418] | CDH1-null / parental viability ratio: 1.16; CDH1-null viability vs mock: 0.74
DCP1A [SID152156325] | CDH1-null / parental viability ratio: 0.99; CDH1-null viability vs mock: 0.95
MX1 [SID134316054] | CDH1-null / parental viability ratio: 0.55; CDH1-null viability vs mock: 0.45
RWDD3 [SID152150755] | CDH1-null / parental viability ratio: 1.08; CDH1-null viability vs mock: 0.98
DVL3 [SID135620780] | CDH1-null / parental viability ratio: 1.02; CDH1-null viability vs mock: 0.86
TMEM91 [SID135625575] | CDH1-null / parental viability ratio: 0.98; CDH1-null viability vs mock: 0.8
ZNF628 [SID152154592] | CDH1-null / parental viability ratio: 1.44; CDH1-null viability vs mock: 0.62
SHKBP1 [SID152156204] | CDH1-null / parental viability ratio: 0.74; CDH1-null viability vs mock: 0.7
MIEN1 [SID134318951] | CDH1-null / parental viability ratio: 0.96; CDH1-null viability vs mock: 0.81
MRFAP1L1 [SID134320017] | CDH1-null / parental viability ratio: 0.86; CDH1-null viability vs mock: 0.83
HLA-DRB4 [SID152156229] | CDH1-null / parental viability ratio: 1.26; CDH1-null viability vs mock: 1.25
DGKI [SID56479093] | CDH1-null / parental viability ratio: 0.99; CDH1-null viability vs mock: 0.81
ENC1 [SID135621669] | CDH1-null / parental viability ratio: 0.8; CDH1-null viability vs mock: 0.78
VSTM2L [SID152155931] | CDH1-null / parental viability ratio: 1.19; CDH1-null viability vs mock: 0.5
PRKCQ [SID56478674] | CDH1-null / parental viability ratio: 0.79; CDH1-null viability vs mock: 0.73
FUOM [SID152149261] | CDH1-null / parental viability ratio: 0.88; CDH1-null viability vs mock: 0.82
CPSF3 [SID134311753] | CDH1-null / parental viability ratio: 1.04; CDH1-null viability vs mock: 0.56
MYO7A [SID152156366] | CDH1-null / parental viability ratio: 1.06; CDH1-null viability vs mock: 0.86
CMKLR2 [SID152152354] | CDH1-null / parental viability ratio: 0.92; CDH1-null viability vs mock: 0.92
KPNB1 [SID134321456] | CDH1-null / parental viability ratio: 0.7; CDH1-null viability vs mock: 0.28
MRPL28 [SID134321552] | CDH1-null / parental viability ratio: 1.23; CDH1-null viability vs mock: 1.03
GPR52 [SID135621028] | CDH1-null / parental viability ratio: 0.74; CDH1-null viability vs mock: 0.75
ASAP1 [SID152154104] | CDH1-null / parental viability ratio: 1.18; CDH1-null viability vs mock: 0.52
WDR5 [SID152150036] | CDH1-null / parental viability ratio: 1.17; CDH1-null viability vs mock: 0.9
PI4K2B [SID56479132] | CDH1-null / parental viability ratio: 1.36; CDH1-null viability vs mock: 1.01
PDE6D [SID152152384] | CDH1-null / parental viability ratio: 1.07; CDH1-null viability vs mock: 1.02
GOLPH3L [SID152152963] | CDH1-null / parental viability ratio: 1; CDH1-null viability vs mock: 0.4
ZC3H18-DT [SID135625285] | CDH1-null / parental viability ratio: 1.42; CDH1-null viability vs mock: 0.57
DOLK [SID134311728] | CDH1-null / parental viability ratio: 1.32; CDH1-null viability vs mock: 1
BSND [SID134317098] | CDH1-null / parental viability ratio: 1.2; CDH1-null viability vs mock: 0.79
FN1 [SID134314553] | CDH1-null / parental viability ratio: 0.84; CDH1-null viability vs mock: 0.84
ARL9 [SID135625220] | CDH1-null / parental viability ratio: 1; CDH1-null viability vs mock: 0.78
FGF18 [SID152148276] | CDH1-null / parental viability ratio: 0.91; CDH1-null viability vs mock: 0.64
